Experimental data reported in PMC5557808 (Nature Communications, 2017).

Assay: general procedure: Fmoc solid-phase peptide synthesis; different resins: Fmoc-Gln(Trt)-Wang, Fmoc-Rink-Amid-PEG-AM, Fmoc-Rink-Amid-AM, Fmoc-Rink-Amid-PS-AM, 2-chlorotrityl chl
Details: whole synthesis

De-GPQGIAGQ-A( N3)-Q
final HPLC purity: 94.8%

G-PQGIAGQ-A( N3)-Q
final HPLC purity: 78.2%

Cf-GPQGYAGQ-A( N3)-Q
final HPLC purity: 56.4%

Cf-GPLGI AGQ-A( N3)-Q
final HPLC purity: 78.2%

Cf-(GPQGIA GQ)2-A( N3)
final HPLC purity: 96.5%

A( N3)-GPQGIA GQ-K-De
final HPLC purity: 89.2%

G-PQGIAGQ-A-Q
final HPLC purity: 91.6%

Cf-(GPQGIA GQ)3-A( N3)
final HPLC purity: 99.1%
